Source: patent publication US20070167438A1, “Treatment of substance abuse” (Wyeth, priority 2006, published 2007)
At least one compound was matched to its structure with a doubt left.

Tested on: Rats
Test: Open field locomotor activity (distance moved, zones crossed) with or without cocaine
Type: in vivo
Settings: cocaine 3 mg/kg ip, open field 1 hour after dosing, five minute test
Method: Using (9aR,12aS)-4,5,6,7,9,9a,10,11,12,12a-decahydrocyclopenta[c][1,4]diazepino[6,7,1-ij]quinoline hydrochloride (Compound 1) as an example, the Rats were dosed either with vehicle or with cocaine in the presence or absence of Compound 1 (1.7 mg/kg. sc). One hour after dosing (i.p. & s.c.), rats were put in a open field, where distance moved and zones crossed were recorded by the ethovision program.
Animals were brought to the lab room 1 hour before the start of the experiment. Rats were injected with compound(s) 1 hour before being placed in the open field. Rats were then placed in open field, and the test lasted for five minutes.

## COC(=O)[C@H]1[C@@H](OC(=O)c2ccccc2)C[C@@H]2CC[C@H]1N2C [cocaine]
  distance moved: increase
  number of zones crossed: increase
